Source: PubChem BioAssay AID504834 (National Center for Advancing Translational Sciences (NCATS), 2011)
The whole screen tested about 320,000 compounds, of which about 22,000 (6.9%) were called active. Inconclusive results, whose numbers are uncertain, are shown with a selection of clear calls. Calls come from the whole dose curve; as a rule, active = well fitted inhibition curve with a large enough effect; inconclusive = small, poorly fitted or top-dose-only effect, or another doubt; inactive = no such curve, though single readings can be large or run the other way. Potencies of inconclusive entries are doubtful fits and often do not repeat.

Assay: Primary qHTS for delayed death inhibitors of the malarial parasite plastid, 96 hour incubation
Conditions: P. falciparum luciferase reporter growth; series mostly up to 28.7 µM; activity change, negative = inhibition: at the top concentration
From the text: The goal of this screen is to discover new antimalarial compounds that act by inhibiting the development of the apicoplast in the malarial parasite Plasmodium falciparum. The biochemical processes that make this organelle essential for erythrocytic stage parasites are not well understood. However, antibiotics such as azithromycin and tetracycline, which target the apicoplast translational machinery, have a potent antimalarial effect.
We have developed a cell-based assay that measures parasite growth based on the expression of an integrated copy of a firefly luciferase reporter. To detect small molecules that cause this "delayed death" phenotype, erythrocytes infected with the luciferase-expressing parasites were incubated with compounds for either one or two generations, corresponding to 48 and 96 hours, respectively. Compounds that inhibit parasite growth in the second generation, but not the first, should be enriched in antimalarials that target the apicoplast. Growth inhibition is detected by a decrease in luciferase activity.
Assay Provider: David Fidock and Eric Ekland, Columbia University
Keywords: NIH Roadmap, MLPCN, MLI, MLSMR, qHTS, NCGC, qHTS, malaria, luciferase, viability
Four microliters of infected erythrocytes (2% hematocrit, 0.05% parasitemia final concentration) in culture medium were dispensed and the plates incubated for 96 hours at 37 C in 5% CO2. Two microliters of luciferase detection reagent was added and luminescence was detected by a ViewLux (PerkinElmer) reader.
% is set by controls: 0 for no effect and ±100 for the full control effect; potency is the fitted concentration of half-maximal effect.

Row | SMILES | activity change, negative = inhibition | Potency
1 | CCCCON1C(=O)c2cccc3cccc(c23)C1=O | inactive: 33.8% | 
2 | O=C(Cn1c(=O)n(-c2cccc(C(F)(F)F)c2)c(=O)c2sccc21)NCC1CCCO1 (stereo not given) | inactive: 1.56% | 
3 | CC(NC(=O)CCC(=O)c1ccccc1)c1ccc(F)cc1 (stereo not given) |  | inconclusive: 3.7 µM [inhibitor, partial curve, poor fit]
4 | CCc1nn(CC(=O)NCCC(C)C)c(=O)c2cc3c(OC)cccc3n12 | inactive: -20% | 
5 | O=c1[nH]c(=O)n(Cc2ccc(F)cc2)c(O)c1C=Nc1ccc(Cl)cc1 | inactive: -1.01% | 
6 | COc1cccc(/C=N\NC(=O)Cn2nnc3ccccc32)c1O | inactive: 27.2% | 
7 | Cc1cc(C)n(Cc2cccc(C(=O)N/N=C/c3cccnc3)c2)n1 | inactive: 1.12% | 
8 | CC(NC(=O)Nc1ccccc1)C(c1cccs1)N1CCN(C)CC1 (stereo not given) | inactive: -2.77% | 
9 | O=C(NC1CCCCCC1)c1cc(S(=O)(=O)N2CCCCC2)ccc1N1CCOCC1 |  | inconclusive: 0.928 µM [inhibitor, partial curve, poor fit]
10 | COc1ccc(-c2cc(C(F)(F)F)nc(SCC(=O)N3CCOCC3)n2)cc1OC |  | inconclusive: 11.7 µM [inhibitor, partial curve, poor fit]
11 | Cc1nc(N/N=C/c2ccccc2)nc(N(C)c2ccccc2)c1[N+](=O)[O-] |  | inconclusive: 0.415 µM [inhibitor, full curve, poor fit]
12 | CCN(CC)S(=O)(=O)c1ccc(N2CCOCC2)c(NC(=O)CC(C)(C)C)c1 |  | inconclusive: 0.0738 µM [inhibitor, full curve, poor fit]
13 | COC(=O)C1=C(c2ccc(F)cc2OCc2ccccc2)C[C@@H]2CC[C@H]1N2C(=O)NCc1ccc(Cl)cc1 |  | inconclusive: 2.33 µM [inhibitor, full curve]
14 | CN(C)c1ccc(C(=O)OCC(=O)N2CCCC2)cc1 | inactive: 78% | 
15 | CCOC(=O)N1CCN(S(=O)(=O)N2CCCC(C(=O)NCc3cccc(OC)c3)C2)CC1 (stereo not given) |  | active: 6.57 µM
16 | COc1ccc(OC)c(CCNC(=O)CCc2nnc3ccc(N4CCOCC4)nn23)c1 |  | inconclusive: 13.1 µM [inhibitor, single point]
17 | COc1ccccc1N1N=C(c2cccs2)CC1c1ccccc1 (stereo not given) |  | inconclusive: 10.4 µM [inhibitor, single point]
18 | COc1ccc(-c2noc(CN(Cc3nccn3C)C(C)C)n2)cc1 |  | inconclusive: 11.7 µM [inhibitor, single point]
19 | CC(C)CC(=O)Nc1ccnc(-c2ccncc2)n1 | inactive: -6.24% | 
20 | CN(Cc1ccccc1)C(=O)CCSc1nc(-c2ccc3c(c2)OCO3)cc(C(F)(F)F)n1 | inactive: -1.57% | 
21 | Cc1cc(C=O)c(C)n1-c1ccc(N2CCCC2)c([N+](=O)[O-])c1 |  | inconclusive: 1.47 µM [inhibitor, partial curve, poor fit]
22 | Cc1ccc2nc(NCCCNC(=O)c3cnccn3)c(C#N)cc2c1 |  | inconclusive: 6.57 µM [inhibitor, partial curve]
23 | COC(=O)c1ccc(C(NC(=O)OCc2ccccc2)/C(F)=C/[C@@H](C)C(=O)NCc2ccc(-c3ccccc3)cc2)cc1 (stereo not given in full) |  | inconclusive: 18.5 µM [inhibitor, single point]

Exported as comma-separated lines: 2 of the compounds above
Row,SMILES,"activity change, negative = inhibition",Potency
18,COc1ccc(-c2noc(CN(Cc3nccn3C)C(C)C)n2)cc1,,"inconclusive: 11.7 µM [inhibitor, single point]"
19,CC(C)CC(=O)Nc1ccnc(-c2ccncc2)n1,inactive: -6.24%,

(listing goes on)

Row | SMILES | activity change, negative = inhibition | Potency
24 | O=c1c2ccccc2nc(COc2ccccc2)n1/N=C/c1cc([N+](=O)[O-])ccc1O |  | inconclusive: 16.5 µM [inhibitor, single point]
25 | CC1CCCCN1c1nc2nonc2nc1N1CCCCC1C (stereo not given) |  | inconclusive: 10.4 µM [inhibitor, single point]
26 | COc1ccc(NC(=O)c2c(C)nn(Cc3ccccc3)c2Cl)cc1S(=O)(=O)N1CCOCC1 |  | inconclusive: 18.5 µM [inhibitor, single point]
27 | CCCC(=O)NCCc1cc(OC)c(OC)cc1Br | inactive: 8.41% | 
28 | C/C=C/CSc1nc2c(c(=O)[nH]c(=O)n2C)n1CCC |  | inconclusive: 10.4 µM [inhibitor, partial curve, poor fit]
29 | CCN(c1ccc(OC)cc1)S(=O)(=O)c1cc(-c2cc(C)no2)ccc1OC |  | inconclusive: 18.5 µM [inhibitor, single point]
30 | Cc1ccn2cc(-c3ccc(Br)cc3)nc2c1 | inactive: -27.2% | 
31 | C=CCNC(=S)NNC(=O)COc1ccc2cc(Br)ccc2c1 |  | inconclusive: 18.5 µM [inhibitor, single point]
32 | CCOC(=O)Cc1c(C)nc(N)[nH]c1=O |  | inconclusive: 18.5 µM [inhibitor, single point]
33 | Cc1ccc(-n2nc3c(=O)n(CCCC(=O)NCc4ccco4)nc(C)c3c2C)cc1 |  | inconclusive: 4.65 µM [inhibitor, partial curve, poor fit]
34 | Cc1cc(=O)n(C)c(=O)n1CC(=O)N1CCCCCC1 |  | inconclusive: 4.15 µM [inhibitor, partial curve, poor fit]
35 | O=C(Nc1cccc(C(F)(F)F)c1)Oc1ccc(Cl)c2cccnc12 |  | active: 2.33 µM
36 | CC(/C=C/c1ccco1)=N\NC(=O)COc1ccc(C)c(C)c1 | inactive: 3.05% | 
37 | COc1ccc(CCNC(=O)CCc2ccc(S(=O)(=O)NCC(C)C)cc2)cc1 |  | inconclusive: 18.5 µM [inhibitor, single point]
38 | CS(=O)(=O)/C(C#N)=C\c1cnc(S(=O)(=O)c2ccccc2)s1 | inactive: -7.88% | 
39 | Cc1onc(-c2ccccc2Cl)c1C(=O)Nc1ccccc1N1CCOCC1 |  | inconclusive: 11.7 µM [inhibitor, single point]
40 | COCc1nnc(NC(=O)c2ccc(NC(=O)C(C)C)cc2)s1 |  | inconclusive: 1.85 µM [inhibitor, single point]
41 | O=C(C(Cc1ccccc1)N1C(=O)c2ccccc2C1=O)N1CCc2ccccc21 (stereo not given) |  | inconclusive: 16.5 µM [inhibitor, single point]
42 | Cc1ccc(S(=O)(=O)c2nc(NCc3ccc4c(c3)OCO4)sc2Cl)cc1 |  | inconclusive: 13.1 µM [inhibitor, single point]
43 | NC(=O)COC(=O)c1c2c(nc3ccccc13)CCCCC2 | inactive: -12.8% | 
44 | CCCCNC(=O)CSc1nc2ccc(Nc3nc(N4CCOCC4)nc(N4CCOCC4)n3)cc2s1 |  | active: 8.28 µM
45 | O=C(Nc1c(C(=O)N2CCOCC2)cnn1-c1ccccc1)c1ccccc1F | inactive: 60.3% | 
